Assay results as given in PubChem BioAssay AID1347076 (National Center for Advancing Translational Sciences (NCATS), 2019).
About 13,000 (3.2%) of roughly 400,000 compounds were called active. The shares of active, inactive and inconclusive entries below differ from those in the screen. Calls come from the whole dose curve; as a rule, active = well fitted cell-killing curve with a large enough effect; inconclusive = small, poorly fitted or top-dose-only effect, or effect the other way; inactive = flat fitted curve, though single readings scatter. Potencies beside an inconclusive call are fits to weak or partial responses and may not hold up.

assay: qHTS assay for MDR1-selective chemotherapeutics: Primary screen using the drug-selected MDR subline cells KB-V1; conditions: KB-V1 MDR cells viability, CellTiter-Glo, 72 h; activity change, negative = cytotoxicity: at 46.1 µM (top of the series); note: nearly all actives have a fitted effect of over 60% in size
Method in brief: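 Cytotoxicity toward P-gp-expressing KB-V1 cells was determined as loss of CellTiter-Glo luminescence after 72 h at 37 degrees C. Compounds were tested in quantitative HTS format across a concentration range, with curves fitted to normalized data.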
% is set by controls: 0 for no effect and ±100 for the full control effect; potency is the fitted concentration of half-maximal effect.

| SMILES | Potency | activity change, negative = cytotoxicity |
| --- | --- | --- |
| COc1ccc(CCc2cc(OC)c(OC)c(OC)c2)cc1 | active: 2.59 µM | – |
| Cc1cccc(-c2nc(SCC(=O)Nc3cccc(C(F)(F)F)c3)n3[nH]c(=O)cc3n2)c1 | inconclusive: 29.1 µM [rising, single point] | – |
| CCOc1ccc(CNC(=O)C2CCCN(S(=O)(=O)c3ccc4c(c3)CCCC(=O)N4)C2)cc1 (configuration not stated) | inactive | – |
| O=C(/C=C\c1ccco1)Nc1nc(-c2ccc3ccccc3c2)cs1 | inconclusive: 29.1 µM [cytotoxic, single point] | – |
| CC1(C)Oc2ccc3ccc(=O)oc3c2/C(=C/NNC(N)=O)C1=O | inconclusive: 16.4 µM [cytotoxic, single point] | – |
| CCN(CCCN(C)C)c1ccc(/C=C/c2ccnc3ccccc23)cc1 | – | inconclusive: 29.7% |
| Cc1ccn2c(=O)nc(SCC(=O)N3N=C(c4cccs4)CC3c3ccc(F)cc3)nc2c1 (configuration not stated) | inactive | – |
| O=c1[nH]c(Nc2nc3ccccc3o2)nc2c1CCCC2 | inconclusive: 23.1 µM [cytotoxic, single point] | – |
| COc1ccccc1OCCn1cc(/C=C(\C#N)C(=O)NCc2ccco2)c2ccccc21 | active: 3.66 µM | – |
| CCOC(=O)C1=C(CN2CCN(CC)CC2)NC(=O)NC1c1ccc(Cl)cc1 (configuration not stated) | inactive | – |
| CC(=O)Nc1ccccc1-c1nc2ccc(C(=O)N3CCN(c4cccc(C)c4)C(C)C3)cc2[nH]c1=O (configuration not stated) | inconclusive: 0.651 µM [rising, full curve, poor fit] | – |
| CC(C)C[C@@H](CN1CCC[C@H]1CN1C(=O)C(=O)NC[C@@H]1Cc1ccccc1)N1C[C@H](Cc2ccccc2)N(CCc2ccccc2)C(=O)C1=O | inactive | – |
| O=C(c1ccc(CSc2ccccc2)cc1)N1CCCCCC1 | inconclusive: 20.6 µM [cytotoxic, single point] | – |
| CCCn1c(=O)sc2cc(NC(=O)c3ccccc3OCC)ccc21 | inactive | – |
| O=C(CN1CCN(Cc2ccccc2)CC1)Nc1ccc2c(c1)CCC2 | inconclusive: 18.4 µM [cytotoxic, single point] | – |
| O=C(O)c1nn2c(c1Br)NC(c1ccccc1)CC2C(F)(F)F (configuration not stated) | inconclusive: 11.6 µM [rising, partial curve, poor fit] | – |
| O=[N+]([O-])c1cncc([N+](=O)[O-])c1Nc1cccc(O)c1 | active: 23.1 µM | – |
| COc1cc(Cl)ccc1OC1(C)CCN(Cc2ccc(SC)cc2)C1 (configuration not stated) | inactive | – |
| Cc1cc(C)c(C)c(S(=O)(=O)NCC(=O)N2CCCC2)c1C | inconclusive: 23.1 µM [cytotoxic, single point] | – |
| Cc1ccc(S(=O)(=O)N2CCC[C@H]2C(=O)OCC(=O)Nc2ccc3c(c2)OCO3)cc1 | inactive | – |
| CCCn1nc2cc(C(=O)NC3CCc4ccccc43)ccc2c1OCC (configuration not stated) | inactive | – |
| Cn1cnnc1SCC(=O)Nc1ccc(OC(F)F)cc1 | inconclusive: 29.1 µM [rising, single point] | – |
| O=C(O)CCCCCNC(=O)Cn1nnc2ccccc2c1=O | inactive | – |

Structures from the list above that have sulfur (10):

| SMILES | Potency | activity change, negative = cytotoxicity |
| --- | --- | --- |
| Cc1cccc(-c2nc(SCC(=O)Nc3cccc(C(F)(F)F)c3)n3[nH]c(=O)cc3n2)c1 | inconclusive: 29.1 µM [rising, single point] | – |
| CCOc1ccc(CNC(=O)C2CCCN(S(=O)(=O)c3ccc4c(c3)CCCC(=O)N4)C2)cc1 (configuration not stated) | inactive | – |
| O=C(/C=C\c1ccco1)Nc1nc(-c2ccc3ccccc3c2)cs1 | inconclusive: 29.1 µM [cytotoxic, single point] | – |
| Cc1ccn2c(=O)nc(SCC(=O)N3N=C(c4cccs4)CC3c3ccc(F)cc3)nc2c1 (configuration not stated) | inactive | – |
| O=C(c1ccc(CSc2ccccc2)cc1)N1CCCCCC1 | inconclusive: 20.6 µM [cytotoxic, single point] | – |
| CCCn1c(=O)sc2cc(NC(=O)c3ccccc3OCC)ccc21 | inactive | – |
| COc1cc(Cl)ccc1OC1(C)CCN(Cc2ccc(SC)cc2)C1 (configuration not stated) | inactive | – |
| Cc1cc(C)c(C)c(S(=O)(=O)NCC(=O)N2CCCC2)c1C | inconclusive: 23.1 µM [cytotoxic, single point] | – |
| Cc1ccc(S(=O)(=O)N2CCC[C@H]2C(=O)OCC(=O)Nc2ccc3c(c2)OCO3)cc1 | inactive | – |
| Cn1cnnc1SCC(=O)Nc1ccc(OC(F)F)cc1 | inconclusive: 29.1 µM [rising, single point] | – |

(list continues)

| SMILES | Potency | activity change, negative = cytotoxicity |
| --- | --- | --- |
| O=Cc1cn(-c2ccccc2)nc1-c1ccncc1 | inconclusive: 29.1 µM [cytotoxic, single point] | – |
| Cc1cc(C)c(NC(=O)C2CSCCS2)c(C)c1 (configuration not stated) | inconclusive: 23.1 µM [cytotoxic, single point] | – |
| Cc1ccc(S(=O)(=O)Nc2ccc(C(=O)NCCCn3ccnc3)cc2)cc1[N+](=O)[O-] | inactive | – |
| Cc1cccc(N2CCN(C(=O)CCCn3c(=O)c4cccn4c4cccnc43)CC2)c1C | – | inconclusive: -50.8% |
| Cc1cccc(/C=C\c2nc3ccccc3c(=O)[nH]2)c1 | inconclusive: 18.4 µM [cytotoxic, single point] | – |
| Cc1ccc(S(=O)(=O)N2CCCCC2)cc1NC(=O)Cn1c(=O)cnc2ccccc21 | inconclusive: 29.1 µM [cytotoxic, single point] | – |
| COc1ccccc1C(=O)NC1(C(F)(F)F)C(=O)Nc2c1c(=O)[nH]c(=O)n2CCc1ccccc1 (configuration not stated) | inconclusive: 29.1 µM [rising, single point] | – |
| CCn1cc(C(=O)N[C@H](C(=O)O)C(C)C)c(=O)c2cc3c(cc21)OCO3 | inactive | – |
| CCc1nc2ccccc2n1CCCCOc1ccccc1C | inconclusive: 29.1 µM [cytotoxic, single point] | – |
| CCC1(C)Cc2ccccc2-c2nc(SC)[nH]c(=O)c21 (configuration not stated) | inconclusive: 29.1 µM [cytotoxic, single point] | – |
| CC(C)C[C@@H](CN1CCCC1CN1C(=S)NC[C@@H]1Cc1ccccc1)N1C[C@H](Cc2ccc(O)cc2)N(CC2CCCCC2)C1=S (some centres not stated) | inconclusive: 29.1 µM [cytotoxic, single point] | – |
| COC(=O)c1ccc(-n2c(/C=C\c3cccc(Br)c3)nc3ccccc3c2=O)cc1 | inconclusive: 11.6 µM [cytotoxic, partial curve, poor fit] | – |
| C=CC(=O)Nc1sc2c(c1C(N)=O)CCCC2 | inconclusive: 29.1 µM [cytotoxic, single point] | – |
| COc1cccc(NC(=O)C(=O)NCCC2CCCCN2S(=O)(=O)c2cccs2)c1 (configuration not stated) | inactive | – |
| Cc1cc(NC(=O)CSc2nc3c(C)cccc3cc2C#N)no1 | inconclusive: 3.66 µM [cytotoxic, partial curve, poor fit] | – |
| Cn1c(N)nc(N)c(NC=O)c1=O | inactive | – |
| FC(F)(F)c1ccc(-c2nc(=S)[nH][nH]2)cc1 | inconclusive: 29.1 µM [rising, partial curve, poor fit] | – |
| CC(Nc1nc(N2CCCC2)nc2ccccc12)c1ccccc1 (configuration not stated) | inconclusive: 29.1 µM [cytotoxic, single point] | – |
| Cc1ccc(C(=O)Nc2nnc(-c3ccco3)o2)cc1C | inconclusive: 6.51 µM [cytotoxic, full curve] | – |
| O=C(CSc1nccn1Cc1ccco1)Nc1ccccc1F | inconclusive: 23.1 µM [cytotoxic, single point] | – |
| Cn1c(=O)[nH]c(=O)c2c1nc(N1CCCCC1)n2CCOc1ccccc1 | inconclusive: 3.66 µM [cytotoxic, full curve] | – |
| CCCCOC(=O)Nc1nc(C)c(C(=O)OCC)s1 | active: 11.6 µM | – |
| CCOc1ccc(NC(=O)C2CCCN2S(=O)(=O)c2ccc(OCC)cc2)cc1 (configuration not stated) | inconclusive: 8.2 µM [cytotoxic, partial curve] | – |

| SMILES | Potency | activity change, negative = cytotoxicity |
| --- | --- | --- |
| CN(C)C(=O)CSc1nc(-c2ccccc2)c(-c2ccccc2)o1 | inconclusive: 8.2 µM [cytotoxic, partial curve, poor fit] | – |
| O=C(Nc1ccc(N2CCN(C(=O)c3cccs3)CC2)cc1)c1ccccc1Cl | inconclusive: 16.4 µM [cytotoxic, single point] | – |
| CCN1C(C(=O)c2ccccc2)=C(OC(=O)C(C)C)c2ccccc2S1(=O)=O | inconclusive: 29.1 µM [cytotoxic, single point] | – |
| COc1cc2c(cc1NC(=O)CN(C)Cc1nc3ccccc3c(=O)[nH]1)oc1ccccc12 | inconclusive: 29.1 µM [cytotoxic, single point] | – |
| COc1ccc(CCNC(=O)CCCCn2c(=O)c3ccccc3n(CC(=O)Nc3ccccc3C)c2=O)cc1OC | inconclusive: 1.64 µM [rising, single point] | – |
| COc1ccc(S(=O)(=O)c2cn(Cc3ccccc3)c3cc(N4CCCC4)c(F)cc3c2=O)cc1 | inactive | – |
| CC(C)(C)C(=O)NC(=S)Nc1ccccc1C(=O)NC1CCCCC1 | inconclusive: 11.6 µM [cytotoxic, partial curve, poor fit] | – |
| CC(C)NC(=O)Nc1ccc2c(c1)C(=O)N([C@H](C)CO)C[C@H](C)[C@@H](CN(C)Cc1ccc(C(F)(F)F)cc1)OCCCC[C@@H](C)O2 | inconclusive: 16.4 µM [cytotoxic, single point] | – |
| Clc1cccc(CN2C3=NCCCN3c3ccccc32)c1 | inconclusive: 14.6 µM [cytotoxic, single point] | – |
| CCCCNc1nc2c(c(=O)[nH]c(=O)n2C)n1CCOc1ccccc1 | inconclusive: 7.31 µM [cytotoxic, partial curve, poor fit] | – |
| Cc1cccc(-[n+]2c(-c3cccc(Br)c3)[nH]c3nc4ccccc4nc32)c1 | inconclusive: 6.51 µM [cytotoxic, partial curve] | – |
| CC(C)CCNC(=O)C1CCCN(S(=O)(=O)c2ccc3c(c2)CC(C)N3C(=O)C2CC2)C1 (configuration not stated) | inactive | – |
| Cc1cc(C)cc(OCC(=O)N(Cc2ccco2)c2c(N)n(Cc3ccccc3)c(=O)[nH]c2=O)c1 | inconclusive: 29.1 µM [rising, partial curve, poor fit] | – |
| CC(C)(C#N)NC(=O)C1CCCN1S(=O)(=O)c1ccc2ccccc2c1 (configuration not stated) | inconclusive: 23.1 µM [cytotoxic, single point] | – |
| O=C(CCn1ccnc1)Nc1nc2ccccc2[nH]1 | inconclusive: 20.6 µM [rising, single point] | – |
| CCOc1ccc(Nc2ccc(N)c(S(=O)(=O)O)c2)cc1 | inconclusive: 29.1 µM [rising, single point] | – |
| Cc1nc(NC(=O)C(C)Oc2cccc(Cl)c2)sc1C(=O)N(C)C (configuration not stated) | inactive | – |
| C/C(=N\Nc1ccc([N+](=O)[O-])cc1)c1cccc(N)c1 | inconclusive: 29.1 µM [cytotoxic, single point] | – |
| Cc1ccccc1OCC(O)Cn1c(NCc2ccco2)nc2c1c(=O)n(C)c(=O)n2C (configuration not stated) | inconclusive: 23.1 µM [cytotoxic, single point] | – |
| O=S1(=O)Nc2c(ccc3cccnc23)-c2ccccc21 | inconclusive: 1.16 µM [cytotoxic, full curve, poor fit] | – |
| COc1ccc(C(=O)/C=C/c2ccc(OC)c(CN3CCOCC3)c2)cc1 | active: 14.6 µM | – |

Record cards, as listed above. Order of values: Potency	activity change, negative = cytotoxicity
CCN1C(C(=O)c2ccccc2)=C(OC(=O)C(C)C)c2ccccc2S1(=O)=O as listed: inconclusive: 29.1 µM [cytotoxic, single point]	–
CC(C)CCNC(=O)C1CCCN(S(=O)(=O)c2ccc3c(c2)CC(C)N3C(=O)C2CC2)C1 (configuration not stated) as listed: inactive	–
